Laboratory results as given in PubChem BioAssay AID2685 (National Center for Advancing Translational Sciences (NCATS), 2010).
The other results are listed elsewhere or left out. Further columns of the screen follow, without active or inactive calls. Most of these compounds were active or inconclusive in the main read-out, so they are no random draw. Words in brackets tell the shape of the fitted curve; partial curves, single points and poor fits give uncertain potencies.

Assay: qHTS Assay for Lipid Storage Modulators in Drosophila S3 Cells;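 for cell number change: cells counted by Cell Tracker Red CMTPX staining in the red channel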
Conditions: BODIPY lipid droplet fluorescence, 18-24 h; for cell number change: measured here: cell count max response, cells fed with added oleic acid
Method in brief: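 Drosophila S3 cells loaded with oleic acid (400 uM, as added) and compounds at several concentrations; lipid droplets imaged by 488-nm laser-scanning cytometry, 500–530 nm intensity and object ratio to cell channel. Percent activity normalized to 20 uM Triacsin C.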

[1] = measured here: cell number channel AC50, cells fed with added oleic acid
[2] = measured here: lipid fluorescence (Fed channel) AC50, cells fed with added oleic acid

COc1ccccc1C(=O)Nc1cc2c(cc1C(=O)O)OCCCO2
cell number change: 3.91%

Cn1c2cc([N+](=O)[O-])sc2c2cnn(Cc3ccccc3F)c(=O)c21
cell number change: 17.4%

C/C(=C\C(=O)Nc1cc(C)on1)c1ccccc1
cell number change: 11.4%

N/C(=N\OC(=O)CC1CCCCC1)c1ccc(Br)cc1
cell number change: 17%

Cc1cc(Cl)ccc1OCC(=O)N/N=C1\CCCc2ccccc21
cell number change: 40.8%
AC50 [1]: 23.1 µM [rising, single point]
AC50 [2]: 23.1 µM [falling, single point]

O=C(O)CCNS(=O)(=O)c1ccccc1
cell number change: -24.2%
AC50 [1]: 4.11 µM [falling, full curve, poor fit]
AC50 [2]: 0.058 µM [falling, full curve]

COc1ccc(OCC(=O)Nc2ccc3c(c2)nc(CCN2CCCCC2)n3C)cc1
AC50 [2]: 3.26 µM [rising, partial curve, poor fit]

Cc1cccc(C)c1NC(=O)C1CSC2(C)CCC(=O)N12 (stereo unspecified)
cell number change: 32.4%
AC50 [1]: 5.17 µM [rising, full curve, poor fit]
AC50 [2]: 5.8 µM [rising, partial curve]

Cc1ccc(S(=O)(=O)Nc2cccc(C(=O)NC3CCN(Cc4ccccc4)CC3)c2)cc1F
cell number change: 150%
AC50 [1]: 13 µM [rising, partial curve]

COc1c(C)cc(C(=O)C2CCCN(C(=O)CCCn3cncn3)C2)cc1C (stereo unspecified)
cell number change: 8.39%
AC50 [1]: 0.00517 µM [rising, full curve, poor fit]
AC50 [2]: 13 µM [rising, partial curve]

O=S(=O)(c1ccc(F)c(F)c1)N1CCN(c2ccccn2)CC1
cell number change: 27.2%
AC50 [2]: 0.731 µM [rising, single point]

Cc1noc(-c2ccc(Cl)cc2)c1C(=O)O/N=C(\N)c1ccc(C(C)(C)C)cc1
cell number change: 7.15%

COc1ccc(-n2c(C)nn(CCOc3ccccc3)c2=O)cc1
cell number change: -10.6%
AC50 [2]: 3.16 µM [falling, single point]

O=C(NCCN1C(=O)CSC1=O)c1ccccc1
cell number change: -12%
AC50 [2]: 4.61 µM [falling, partial curve]

CCCCCCN1C=C/C(=C\C=C(C#N)C#N)c2ccccc21
cell number change: -61.6%
AC50 [1]: 9.2 µM [falling, partial curve]
AC50 [2]: 6.51 µM [falling, full curve]

O=[N+]([O-])c1ccccc1CSc1nc2ccccc2o1
cell number change: -2.19%
AC50 [2]: 6.51 µM [rising, single point]

Oc1ccccc1C1=Nc2ccccc2N=C(c2ccco2)C1
cell number change: -25.4%
AC50 [2]: 3.26 µM [rising, partial curve]

Cc1c(C)c2c(OCC(=O)N3CCC[C@H]3C(=O)O)cc3c(c2oc1=O)CCC(C)(C)O3
cell number change: -6.8%
AC50 [2]: 3.26 µM [rising, full curve]

O=C(CCC(=O)Nc1ccc(Br)cc1)N/N=C/c1ccccc1F
cell number change: 33.3%
AC50 [2]: 16.4 µM [falling, partial curve]

CCOc1ccc(-c2nnc3n2N=C(c2ccc(OC)cc2)CS3)cc1
cell number change: -28%
AC50 [2]: 0.259 µM [falling, full curve, poor fit]

CCOC(=O)C(NC(=O)CC(C)C)(Nc1sc(C)c(CC)c1C#N)C(F)(F)F (stereo unspecified)
cell number change: -68.1%
AC50 [1]: 5.17 µM [falling, full curve]
AC50 [2]: 2.06 µM [falling, partial curve]

COc1ccc(-c2cnnc(N/N=C/c3ccc(O)cc3)n2)cc1
cell number change: -11.5%

Oc1ccc(/C=N/N2CCCCC2)c(O)c1O
cell number change: -12.1%

CCS(=O)(=O)c1ccc2oc(SCC(=O)N3c4ccccc4CC3C)nc2c1 (stereo unspecified)
cell number change: 34.1%
AC50 [1]: 5.8 µM [rising, full curve, poor fit]
AC50 [2]: 0.184 µM [rising, full curve, poor fit]

CC1CCCC(C)N1CCCNC(=O)Cn1cc2c(n1)CCCC2 (stereo unspecified)
cell number change: 19.7%
AC50 [2]: 18.4 µM [rising, single point]

COc1ccc(OC)c(N)c1
cell number change: 6.24%
AC50 [2]: 2.59 µM [rising, partial curve]

O=C(NCC(=O)N1CCCC(C(F)(F)F)C1)c1ccc(Oc2ccccc2)cc1 (stereo unspecified)
AC50 [2]: 29.1 µM [rising, single point]

COc1ccccc1NC(=O)CSc1nc(N)cc(N)n1
cell number change: 10.2%
AC50 [2]: 23.1 µM [rising, single point]

Cc1cc(C(=O)c2ccc(C(C)(C)C)cc2)c(NC(=O)CCl)s1
cell number change: -29.7%
AC50 [2]: 29.1 µM [falling, single point]

O=C(Nc1cccc(-n2cnnn2)c1)c1cnccc1Cl
cell number change: 15.3%
AC50 [1]: 2.31 µM [rising, partial curve]
AC50 [2]: 29.1 µM [falling, single point]

COc1cccc(CN2CCN(C(c3ccccc3)c3ccccc3)CC2)c1O
cell number change: -25.8%
AC50 [2]: 29.1 µM [falling, single point]

COc1ccccc1N1CCN(C(=O)CSc2nnnn2C2CC2)CC1
AC50 [1]: 3.26 µM [falling, single point]
AC50 [2]: 0.0146 µM [rising, full curve, poor fit]

O=S(=O)(Nc1ccc(C(F)(F)F)cc1)c1cccs1
cell number change: 46.1%
AC50 [1]: 32.6 µM [rising, single point]

CCOc1ccc(NC(=O)CN(C)C(=O)CC(NC(=O)c2ccccc2)c2ccccc2)cc1OCC (stereo unspecified)
cell number change: 58.2%
AC50 [1]: 14.6 µM [rising, partial curve]
AC50 [2]: 16.4 µM [rising, partial curve]

COc1ccc(Cl)cc1NC(=O)C1CCN(C(=O)Nc2ccccc2)CC1
cell number change: -26%

Cc1cc(C)c(-c2csc(NC(=O)c3cc([N+](=O)[O-])ccc3N3CCOCC3)n2)c(C)c1
cell number change: -17.8%
AC50 [1]: 1.84 µM [falling, partial curve, poor fit]

Cc1nn(C)cc1S(=O)(=O)N1CCN(c2ccccc2F)CC1
cell number change: 47.7%
AC50 [1]: 6.51 µM [rising, partial curve, poor fit]

CC(=NCCc1c(C)[nH]c2ccc(OCc3ccccc3)cc12)C1=C(O)CC(c2ccccc2)CC1=O (stereo unspecified)
cell number change: -25.9%
AC50 [1]: 0.164 µM [falling, full curve, poor fit]
AC50 [2]: 18.4 µM [falling, single point]
